Data taken from PubChem BioAssay AID504467 (National Center for Advancing Translational Sciences (NCATS), 2011).
Among all 330,000 compounds or so, about 7,700 (2.3%) were called active. The shares of active, inactive and inconclusive entries below differ from those in the screen. Calls follow the shape of the dose curve; as a rule, active = well fitted inhibition curve with a large enough effect; inconclusive = small, poorly fitted or top-dose-only effect, or effect the other way; inactive = flat fitted curve, though single readings scatter. Where the call is inconclusive, the potency comes from a doubtful curve fit.

Assay: qHTS screen for small molecules that inhibit ELG1-dependent DNA repair in human embryonic kidney (HEK293T) cells expressing luciferase-tagged ELG1; also: nearly all actives have a fitted effect of over 55% in size
Conditions: HEK293T ELG1-luciferase reporter, luminescence, 16 h, DNA damage induced by 5-fluorouridine; activity change, negative = inhibition: at 46.1 µM (top of the series)
Procedure, shortened: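 Overnight (16 hr) co-exposure of 2,000 cells/well to 5-fluorouridine and compound at 37 °C preceded detection. Luciferase was quantified via ONE-Glo luminescence; loss of signal denotes inhibition.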
% is scaled to controls: 0 for no effect and ±100 for the full control effect; potency is read from the fitted curve at half-maximal effect.

| SMILES | Potency | activity change, negative = inhibition |
| --- | --- | --- |
| O=C1Nc2ccccc2N=C(c2ccccc2)c2ccccc21 | inconclusive: 18.3 µM [activator, partial curve, poor fit] | – |
| Cc1nc(SCC(=O)Nc2ccccc2C(F)(F)F)c(C#N)c(C)c1CC(=O)c1ccc(Br)cc1 | inconclusive: 32.6 µM [activator, partial curve, poor fit] | – |
| S=c1[nH]nc(-c2ccco2)n1/N=C/c1c(Cl)cccc1Cl | – | inactive: -16.9% |
| CCCCCCn1c(SCC(=O)c2ccccc2)nc2c1c(=O)[nH]c(=O)n2C | inconclusive: 18.4 µM [inhibitor, single point] | – |
| Cc1ccc(NC(=O)c2cc(N3C(=O)CCC3=O)ccc2N2CCCCC2)cc1 | – | inactive: -2.25% |
| O=[N+]([O-])c1nn(-c2cccc(Cl)c2)n(O)c1=NCc1cccnc1 | inconclusive: 16.4 µM [activator, partial curve] | – |
| COc1ccc(CCC(=O)N2c3ccccc3CC2C)cc1 (centres undefined) | inconclusive: 18.4 µM [activator, partial curve] | – |
| CCn1ncc(NC(=S)NCCc2ccccc2)c1C(N)=O | – | inactive: 6.94% |
| O=C(Oc1ccc(-c2ccccc2)cc1)N1CCOCC1 | inconclusive: 6.51 µM [activator, single point] | – |
| Cc1noc(NS(=O)(=O)c2ccc(N/C=C\C(=O)c3ccccc3)cc2)c1C | inconclusive: 20.6 µM [activator, partial curve] | – |
| COC(=O)c1cc(OC(=O)CCc2ccc(OC)c(OC)c2)cc(C(=O)OC)c1 | – | inactive: 2.32% |
| O=C(Nc1ccccc1N1CCN(C(=O)c2ccccc2)CC1)c1ccc(Br)o1 | – | inactive: -9.7% |
| CCCCCN1C=CC(=C2C(=O)c3ccccc3C2=O)C=C1 | inconclusive: 0.058 µM [activator, full curve, poor fit] | – |
| COc1ccc(NC(=O)c2ccc3[nH]c(C)c(C)c3c2)c(OC)c1 | – | inactive: -0.115% |
| C#CCOCCOCCOCCNc1nc(N2CCN(C(=O)[C@H](CCC(=O)O)n3cc(CN)nn3)CC2)nc(N2CCN(C(=O)[C@H](CCCN=C(N)N)n3cc(C(N)[C@@H](C)CC)nn3)CC2)n1 (some centres undefined) | – | inactive: 10.1% |
| O=C(NCCC1CCCCN1S(=O)(=O)c1cccs1)C(=O)Nc1ccccc1F (centres undefined) | – | inactive: -13.9% |
| S=C(Nc1ccc(Cl)cc1Cl)N1CCCC1 | inconclusive: 23.1 µM [activator, partial curve] | – |
| COc1ccc(-c2nc(CCNC(=O)c3ccc(Br)o3)cs2)cc1 | inconclusive: 25.9 µM [inhibitor, single point] | – |
| COc1nc(N/N=C/c2ccc(-c3cccc([N+](=O)[O-])c3)o2)nc(N2CCOCC2)n1 | active: 2.31 µM | – |

Two successive entries out of the list so far, quoted:

| SMILES | Potency | activity change, negative = inhibition |
| --- | --- | --- |
| C#CCOCCOCCOCCNc1nc(N2CCN(C(=O)[C@H](CCC(=O)O)n3cc(CN)nn3)CC2)nc(N2CCN(C(=O)[C@H](CCCN=C(N)N)n3cc(C(N)[C@@H](C)CC)nn3)CC2)n1 (some centres undefined) | – | inactive: 10.1% |
| O=C(NCCC1CCCCN1S(=O)(=O)c1cccs1)C(=O)Nc1ccccc1F (centres undefined) | – | inactive: -13.9% |
